According to paper PMC7575581:
Results are given in words; binding and its absence hold for the method and conditions named. In cells and extracts the contact can be indirect. Some binding calls cover weakened binding; strength is not graded here. Tags and fused reporters may be left off the sequences shown.

T1: Importin 13 (human (endogenous in human lung cancer cell lines and HBE)) (UniProt O94829)
T1 sequence: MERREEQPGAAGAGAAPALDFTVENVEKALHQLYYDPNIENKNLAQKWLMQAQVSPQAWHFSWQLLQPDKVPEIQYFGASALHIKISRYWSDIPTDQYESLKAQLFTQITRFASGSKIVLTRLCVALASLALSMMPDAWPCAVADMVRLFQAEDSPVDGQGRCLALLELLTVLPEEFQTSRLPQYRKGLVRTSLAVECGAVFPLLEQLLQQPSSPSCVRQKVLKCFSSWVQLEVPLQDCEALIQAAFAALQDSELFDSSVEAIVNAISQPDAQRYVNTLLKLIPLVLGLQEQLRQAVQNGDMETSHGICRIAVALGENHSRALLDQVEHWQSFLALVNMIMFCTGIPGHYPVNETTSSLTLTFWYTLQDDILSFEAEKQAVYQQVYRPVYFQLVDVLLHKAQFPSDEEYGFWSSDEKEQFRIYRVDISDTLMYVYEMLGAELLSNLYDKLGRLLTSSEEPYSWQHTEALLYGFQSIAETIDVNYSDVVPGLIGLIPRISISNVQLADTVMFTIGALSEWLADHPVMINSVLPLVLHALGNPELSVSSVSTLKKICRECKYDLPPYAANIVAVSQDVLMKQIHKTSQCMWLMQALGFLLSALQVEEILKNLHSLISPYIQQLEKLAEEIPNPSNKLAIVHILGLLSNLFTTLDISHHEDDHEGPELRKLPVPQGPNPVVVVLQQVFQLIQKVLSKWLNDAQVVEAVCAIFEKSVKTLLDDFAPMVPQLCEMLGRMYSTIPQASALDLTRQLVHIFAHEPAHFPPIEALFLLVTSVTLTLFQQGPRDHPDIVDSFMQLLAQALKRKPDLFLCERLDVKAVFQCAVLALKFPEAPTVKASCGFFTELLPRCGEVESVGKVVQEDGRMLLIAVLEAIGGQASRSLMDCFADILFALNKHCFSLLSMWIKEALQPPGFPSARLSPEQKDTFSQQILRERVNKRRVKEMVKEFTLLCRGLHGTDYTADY

B1: RFPL3-Flag-4 (150–317) (domain or fragment, UniProt O75679 150-317)
chain: GLITQNRQDLAERFDVSVCILGSPRFTCGRHYWEVDVGTSTEWDLGVCRESVHCKGKIQLTTELGFWTVSLRDGSRLSASTVPLTFLLVDRKLQRVGIFLDMGMQNVSFFDAESGSHVYTFRSVSAEEPLRPFLAPSIPPNGDQGVLSICPLMNSGTTDAPVRPGEAK
B2: RFPL3-Flag-6 (235–317) (domain or fragment, UniProt O75679 235-317)
chain: FLLVDRKLQRVGIFLDMGMQNVSFFDAESGSHVYTFRSVSAEEPLRPFLAPSIPPNGDQGVLSICPLMNSGTTDAPVRPGEAK

Target: T1, Importin 13 (human (endogenous in human lung cancer cell lines and HBE))
Assay: co-IP; cells transiently transfected with Flag-tagged RFPL3 or truncation mutants, lysed 48 h after transfection; precipitated with anti-IPO13 (endogenous IPO13) or rabbit IgG control; blot with anti-Flag

Binder	binding
B1	binds weakly
B2	binds weakly
